According to paper PMC8989518:
Results are given in words; binding and its absence hold for the method and conditions named. Binding seen in cells or lysates may run through a third protein. Here binding means that the protein was enriched with, or labelled near, the bait; the list need not be complete.

The chains behind the UniProt entries cited, without tags or fusion partners. Where a name states a change or a piece, a line headed by the entry shows the natural chain unless it says otherwise.
UniProt Q9R0U0: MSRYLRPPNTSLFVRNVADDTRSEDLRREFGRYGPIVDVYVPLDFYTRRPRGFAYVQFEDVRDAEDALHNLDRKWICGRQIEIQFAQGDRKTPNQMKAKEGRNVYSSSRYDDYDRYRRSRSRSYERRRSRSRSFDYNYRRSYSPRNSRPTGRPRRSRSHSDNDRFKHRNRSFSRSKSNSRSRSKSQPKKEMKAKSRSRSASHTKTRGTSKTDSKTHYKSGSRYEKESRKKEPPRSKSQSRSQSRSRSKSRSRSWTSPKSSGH
UniProt Q16630: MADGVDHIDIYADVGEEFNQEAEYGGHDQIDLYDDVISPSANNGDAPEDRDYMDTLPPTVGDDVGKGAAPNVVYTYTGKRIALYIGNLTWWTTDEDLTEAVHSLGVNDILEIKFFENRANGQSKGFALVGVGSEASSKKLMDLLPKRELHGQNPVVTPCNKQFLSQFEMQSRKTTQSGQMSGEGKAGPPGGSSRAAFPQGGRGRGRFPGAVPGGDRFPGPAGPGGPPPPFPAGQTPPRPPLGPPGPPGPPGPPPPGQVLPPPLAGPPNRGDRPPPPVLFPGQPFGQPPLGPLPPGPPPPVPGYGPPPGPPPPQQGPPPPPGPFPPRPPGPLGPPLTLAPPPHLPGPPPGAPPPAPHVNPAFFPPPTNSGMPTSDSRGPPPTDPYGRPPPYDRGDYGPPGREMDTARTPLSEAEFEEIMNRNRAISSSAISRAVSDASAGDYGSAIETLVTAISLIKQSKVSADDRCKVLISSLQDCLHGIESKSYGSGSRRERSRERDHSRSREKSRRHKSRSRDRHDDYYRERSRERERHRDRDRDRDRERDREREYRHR
UniProt O94913: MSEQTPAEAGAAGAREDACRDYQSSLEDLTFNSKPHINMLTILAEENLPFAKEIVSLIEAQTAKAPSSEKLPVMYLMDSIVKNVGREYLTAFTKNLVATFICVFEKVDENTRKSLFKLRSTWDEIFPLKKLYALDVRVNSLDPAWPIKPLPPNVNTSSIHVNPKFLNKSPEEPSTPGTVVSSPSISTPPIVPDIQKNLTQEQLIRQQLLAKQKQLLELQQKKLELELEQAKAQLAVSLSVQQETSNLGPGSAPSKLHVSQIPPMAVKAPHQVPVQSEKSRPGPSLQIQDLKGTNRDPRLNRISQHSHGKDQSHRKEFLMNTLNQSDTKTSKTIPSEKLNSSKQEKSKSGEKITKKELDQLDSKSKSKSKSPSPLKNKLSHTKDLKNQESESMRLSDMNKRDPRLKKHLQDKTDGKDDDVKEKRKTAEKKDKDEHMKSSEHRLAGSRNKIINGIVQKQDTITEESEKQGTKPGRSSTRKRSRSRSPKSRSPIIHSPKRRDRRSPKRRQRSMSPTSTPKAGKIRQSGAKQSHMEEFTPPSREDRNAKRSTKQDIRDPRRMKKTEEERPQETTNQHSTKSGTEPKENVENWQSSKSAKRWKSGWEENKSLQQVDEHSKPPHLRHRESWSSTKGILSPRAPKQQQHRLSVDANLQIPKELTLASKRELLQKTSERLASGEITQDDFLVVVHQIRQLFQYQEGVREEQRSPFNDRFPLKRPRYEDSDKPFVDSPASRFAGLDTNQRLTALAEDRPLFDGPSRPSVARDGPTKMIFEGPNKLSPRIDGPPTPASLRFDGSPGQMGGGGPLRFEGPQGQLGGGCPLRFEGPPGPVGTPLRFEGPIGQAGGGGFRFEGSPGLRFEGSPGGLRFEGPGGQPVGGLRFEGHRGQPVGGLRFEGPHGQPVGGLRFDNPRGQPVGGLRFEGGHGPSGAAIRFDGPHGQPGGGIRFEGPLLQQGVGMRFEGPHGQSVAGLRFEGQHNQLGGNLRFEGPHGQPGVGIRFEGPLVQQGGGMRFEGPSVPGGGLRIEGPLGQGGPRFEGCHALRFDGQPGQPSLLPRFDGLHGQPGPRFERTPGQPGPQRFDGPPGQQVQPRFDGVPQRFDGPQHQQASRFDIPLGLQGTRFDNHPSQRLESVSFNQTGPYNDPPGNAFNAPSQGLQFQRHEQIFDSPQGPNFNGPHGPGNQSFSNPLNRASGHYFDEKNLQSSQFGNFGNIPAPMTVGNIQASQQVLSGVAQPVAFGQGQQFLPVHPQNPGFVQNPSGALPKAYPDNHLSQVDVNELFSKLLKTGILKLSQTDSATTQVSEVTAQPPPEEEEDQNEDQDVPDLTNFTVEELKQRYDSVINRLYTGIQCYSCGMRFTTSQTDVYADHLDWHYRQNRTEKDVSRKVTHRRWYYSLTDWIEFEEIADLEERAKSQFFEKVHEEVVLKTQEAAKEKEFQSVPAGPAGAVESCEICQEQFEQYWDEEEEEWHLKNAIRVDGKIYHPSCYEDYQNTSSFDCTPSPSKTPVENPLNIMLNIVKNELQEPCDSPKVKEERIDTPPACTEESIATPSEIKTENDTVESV
UniProt Q69YN4: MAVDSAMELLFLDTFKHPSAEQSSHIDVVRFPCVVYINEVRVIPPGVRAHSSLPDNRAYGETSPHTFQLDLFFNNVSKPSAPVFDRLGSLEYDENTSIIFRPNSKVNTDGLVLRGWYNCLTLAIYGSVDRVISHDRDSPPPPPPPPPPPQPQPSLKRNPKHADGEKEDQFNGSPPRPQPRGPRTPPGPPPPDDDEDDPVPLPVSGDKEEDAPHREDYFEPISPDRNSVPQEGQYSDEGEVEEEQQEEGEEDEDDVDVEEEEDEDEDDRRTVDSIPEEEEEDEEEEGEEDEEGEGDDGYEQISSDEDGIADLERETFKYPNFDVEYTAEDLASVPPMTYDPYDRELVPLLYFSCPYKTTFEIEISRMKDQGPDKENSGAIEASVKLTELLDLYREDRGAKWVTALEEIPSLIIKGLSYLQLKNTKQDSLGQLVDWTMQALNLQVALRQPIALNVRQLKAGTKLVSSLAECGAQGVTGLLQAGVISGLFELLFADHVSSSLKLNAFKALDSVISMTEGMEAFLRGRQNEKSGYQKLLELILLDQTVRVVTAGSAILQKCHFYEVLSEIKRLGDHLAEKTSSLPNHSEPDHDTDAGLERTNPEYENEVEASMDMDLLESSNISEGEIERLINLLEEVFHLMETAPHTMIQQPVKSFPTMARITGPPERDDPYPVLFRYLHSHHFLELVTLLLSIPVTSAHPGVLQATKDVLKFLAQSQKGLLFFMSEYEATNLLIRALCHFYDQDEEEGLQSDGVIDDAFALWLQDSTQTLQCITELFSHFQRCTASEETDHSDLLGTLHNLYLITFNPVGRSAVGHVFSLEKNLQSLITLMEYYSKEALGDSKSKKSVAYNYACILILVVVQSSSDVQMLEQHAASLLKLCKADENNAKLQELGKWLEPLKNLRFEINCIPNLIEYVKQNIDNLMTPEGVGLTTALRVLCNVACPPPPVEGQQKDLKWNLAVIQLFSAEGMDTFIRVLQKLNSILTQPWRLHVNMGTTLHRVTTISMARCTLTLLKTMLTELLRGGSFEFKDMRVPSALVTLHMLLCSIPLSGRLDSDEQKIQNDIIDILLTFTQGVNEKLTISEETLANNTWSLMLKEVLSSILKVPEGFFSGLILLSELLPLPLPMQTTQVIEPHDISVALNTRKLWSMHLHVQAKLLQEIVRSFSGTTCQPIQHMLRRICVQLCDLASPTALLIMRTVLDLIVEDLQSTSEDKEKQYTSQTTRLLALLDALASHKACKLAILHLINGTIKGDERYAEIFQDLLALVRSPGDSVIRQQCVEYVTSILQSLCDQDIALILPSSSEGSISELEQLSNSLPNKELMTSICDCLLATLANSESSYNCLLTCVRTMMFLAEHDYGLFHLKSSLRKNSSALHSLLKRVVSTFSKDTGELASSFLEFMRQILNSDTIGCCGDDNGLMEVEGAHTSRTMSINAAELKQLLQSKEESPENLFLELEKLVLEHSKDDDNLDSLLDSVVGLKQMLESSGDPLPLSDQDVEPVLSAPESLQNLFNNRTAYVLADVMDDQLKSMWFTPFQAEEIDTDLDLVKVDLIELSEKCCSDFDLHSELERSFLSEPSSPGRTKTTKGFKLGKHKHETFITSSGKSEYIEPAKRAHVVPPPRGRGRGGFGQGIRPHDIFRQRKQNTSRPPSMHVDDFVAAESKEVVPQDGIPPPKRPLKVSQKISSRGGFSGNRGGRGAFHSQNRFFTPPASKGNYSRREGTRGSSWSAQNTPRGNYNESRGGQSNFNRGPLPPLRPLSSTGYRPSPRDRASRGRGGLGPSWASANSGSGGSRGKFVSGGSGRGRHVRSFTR

B1: CPSF2, member of the cleavage and polyadenylation specificity factor complex (protein, UniProt Q9P2I0 1-782)
chain: MTSIIKLTTLSGVQEESALCYLLQVDEFRFLLDCGWDEHFSMDIIDSLRKHVHQIDAVLLSHPDPLHLGALPYAVGKLGLNCAIYATIPVYKMGQMFMYDLYQSRHNTEDFTLFTLDDVDAAFDKIQQLKFSQIVNLKGKGHGLSITPLPAGHMIGGTIWKIVKDGEEEIVYAVDFNHKREIHLNGCSLEMLSRPSLLITDSFNATYVQPRRKQRDEQLLTNVLETLRGDGNVLIAVDTAGRVLELAQLLDQIWRTKDAGLGVYSLALLNNVSYNVVEFSKSQVEWMSDKLMRCFEDKRNNPFQFRHLSLCHGLSDLARVPSPKVVLASQPDLECGFSRDLFIQWCQDPKNSIILTYRTTPGTLARFLIDNPSEKITEIELRKRVKLEGKELEEYLEKEKLKKEAAKKLEQSKEADIDSSDESDIEEDIDQPSAHKTKHDLMMKGEGSRKGSFFKQAKKSYPMFPAPEERIKWDEYGEIIKPEDFLVPELQATEEEKSKLESGLTNGDEPMDQDLSDVPTKCISTTESIEIKARVTYIDYEGRSDGDSIKKIINQMKPRQLIIVHGPPEASQDLAECCRAFGGKDIKVYMPKLHETVDATSETHIYQVRLKDSLVSSLQFCKAKDAELAWIDGVLDMRVSKVDTGVILEEGELKDDGEDSEMQVEAPSDSSVIAQQKAMKSLFGDDEKETGEESEIIPTLEPLPPHEVPGHQSVFMNEPRLSDFKQVLLREGIQAEFVGGVLVCNNQVAVRRTETGRIGLEGCLCQDFYRIRDLLYEQYAIV
B2: CPSF7, member of the cleavage and polyadenylation specificity factor complex (protein, UniProt Q8N684 1-471)
chain: MSEGVDLIDIYADEEFNQDPEFNNTDQIDLYDDVLTATSQPSDDRSSSTEPPPPVRQEPSPKPNNKTPAILYTYSGLRNRRAAVYVGSFSWWTTDQQLIQVIRSIGVYDVVELKFAENRANGQSKGYAEVVVASENSVHKLLELLPGKVLNGEKVDVRPATRQNLSQFEAQARKRECVRVPRGGIPPRAHSRDSSDSADGRATPSENLVPSSARVDKPPSVLPYFNRPPSALPLMGLPPPPIPPPPPLSSSFGVPPPPPGIHYQHLMPPPPRLPPHLAVPPPGAIPPALHLNPAFFPPPNATVGPPPDTYMKASAPYNHHGSRDSGPPPSTVSEAEFEDIMKRNRAISSSAISKAVSGASAGDYSDAIETLLTAIAVIKQSRVANDERCRVLISSLKDCLHGIEAKSYSVGASGSSSRKRHRSRERSPSRSRESSRRHRDLLHNEDRHDDYFQERNREHERHRDRERDRHH
B3: FIP1L1, member of the cleavage and polyadenylation specificity factor complex (protein, UniProt Q6UN15 1-594)
chain: MSAGEVERLVSELSGGTGGDEEEEWLYGGPWDVHVHSDLAKDLDENEVERPEEENASANPPSGIEDETAENGVPKPKVTETEDDSDSDSDDDEDDVHVTIGDIKTGAPQYGSYGTAPVNLNIKTGGRVYGTTGTKVKGVDLDAPGSINGVPLLEVDLDSFEDKPWRKPGADLSDYFNYGFNEDTWKAYCEKQKRIRMGLEVIPVTSTTNKITAEDCTMEVTPGAEIQDGRFNLFKVQQGRTGNSEKETALPSTKAEFTSPPSLFKTGLPPSRNSTSSQSQTSTASRKANSSVGKWQDRYGRAESPDLRRLPGAIDVIGQTITISRVEGRRRANENSNIQVLSERSATEVDNNFSKPPPFFPPGAPPTHLPPPPFLPPPPTVSTAPPLIPPPGFPPPPGAPPPSLIPTIESGHSSGYDSRSARAFPYGNVAFPHLPGSAPSWPSLVDTSKQWDYYARREKDRDRERDRDRERDRDRDRERERTRERERERDHSPTPSVFNSDEERYRYREYAERGYERHRASREKEERHRERRHREKEETRHKSSRSNSRRRHESEEGDSHRRHKHKKSKRSKEGKEAGSEPAPEQESTEATPAE

target: Serine and Arginine Rich Splicing Factor 10 (SRSF10) fused to a promiscuous biotin ligase (BirA) (mouse) (UniProt Q9R0U0); assay: proximity labelling; BioID: SRSF10-BirA or free BirA transfected into HeLa cells, 50 uM biotin overnight; biotinylated proteins captured on streptavidin dynabeads, on-bead digestion, LC-MS/MS; hits shortlisted against free BirA

Molecule | binding
CPSF6, member of the cleavage and polyadenylation specificity factor complex (from UniProt Q16630 1-551) | binds
cleavage and polyadenylation factor subunit PCF11 (from UniProt O94913 1-1555) | binds
M6A methyltransferase VIRMA (from UniProt Q69YN4 1-1812) | binds
B1 | binds
B2 | binds
B3 | binds
